No constants are given. Whether binding was seen depends on the method and setting. In cells and extracts the contact can be indirect. Some binding calls cover weakened binding; strength is not graded here.
Target: V5-CFDP1 (Cranio Facial Development Protein 1 tagged with V5) (human) (UniProt Q9UEE9)
Assay: co-IP; cleared lysates of transfected HeLa cells (IP buffer: 50 mM Tris-HCl pH 7.5, 150 mM NaCl, 1% NP-40, 5 mM EGTA, 5 mM EDTA, 20 mM NaF) immunoprecipitated O/N at 4 °C with mouse anti-V5 antibody and protein A/G agarose; Ms IgG as negative control; Western blot

The chains behind the UniProt entries cited, without tags or fusion partners.
UniProt Q9UEE9: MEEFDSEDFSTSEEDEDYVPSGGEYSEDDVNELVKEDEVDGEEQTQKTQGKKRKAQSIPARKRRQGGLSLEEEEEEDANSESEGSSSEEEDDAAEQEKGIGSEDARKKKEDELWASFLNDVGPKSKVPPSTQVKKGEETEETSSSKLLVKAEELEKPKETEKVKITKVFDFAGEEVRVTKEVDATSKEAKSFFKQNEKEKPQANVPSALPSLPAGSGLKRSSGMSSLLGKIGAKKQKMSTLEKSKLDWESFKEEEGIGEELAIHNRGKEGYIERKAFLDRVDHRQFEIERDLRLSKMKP
UniProt P45973: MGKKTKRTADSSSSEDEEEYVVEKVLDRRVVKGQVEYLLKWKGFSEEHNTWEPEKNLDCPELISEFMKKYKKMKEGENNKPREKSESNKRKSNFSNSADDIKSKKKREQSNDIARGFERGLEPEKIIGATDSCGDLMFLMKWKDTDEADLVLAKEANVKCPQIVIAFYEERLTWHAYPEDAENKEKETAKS

In the case of HP1α (from UniProt P45973 1-191), the binding is reported as “binds weakly”.

Reference: paper PMC5377257
